# Earlier results, collected in patent US20260206756A1, “COMPOUNDS AND METHODS OF TREATING OR PREVENTING A BACTERIAL INFECTION IN A PLANT” (Ohio State Innovation Foundation, priority 2023, published 2026).
# Some results were stated once for a whole list of compounds, not compound by compound.
# System: APEC strains
# Conditions: in-vitro; cited from earlier work
compound,measurement,value
COc1cc(CN(C)Cc2ccccc2)ccc1OCC(O)CN1CCCCCCC1 (stereo not shown) [PC9],MICs against APEC strains,≥ 25 µM
